Data as given in PubChem BioAssay AID1259405 (NCATS, 2018).

Screen: 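Mouse-designed siRNAs used to find CHO productivity engineering targets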 (primary screen)
Cells: Chinese hamster CHO-K1 ovary cells with stable secreted eGFP expression
Reagent: single siRNA against mouse genes, 0.8 pmol siRNA per well (2 µl of 400 nM stock)
Timing: 3 days
Measured: 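Per-well intracellular GFP measured by laser scanning cytometry, plus viability from ATP luminescence, each relative to plate median of non-targeting control wells, in %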
Reading the numbers: GFP, % of control: higher = more GFP per well, higher productivity; viability (ATP), % of control: higher = more viable cells (more ATP)
Rule for the call: 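a knock-down is called active if GFP reaches 120% or more of non-targeting control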
The deposit covers about 50,000 reagents; this is a part drawn at random. About 4,000 of all reagents (8%) were called active. 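Mouse siRNA library applied to hamster cells; one well for each siRNA.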 Reagents against one gene are numbered here. Reagent sequences are not shown.

target gene	reagent	GFP, % of control	viability (ATP), % of control	call
Git1	1	154	108	active
Git1	2	193	116	active
Git1	3	95.9	67.9	inactive
Fkrp	1	64.8	85.9	inactive
Fkrp	2	117	70.1	inactive
Fkrp	3	97.4	80	inactive
Mrpl22	1	40.3	50.7	inactive
Mrpl22	2	115	64	inactive
Mrpl22	3	96.6	65	inactive
Tubg1	1	62.4	75	inactive
Tubg1	2	70.4	81.1	inactive
Ms4a4b	1	78.8	52.5	inactive
Ms4a4b	2	107	89.9	inactive
Ms4a4b	3	73.7	60.3	inactive
Naip5	1	81.5	49.4	inactive
Naip5	2	72.6	88.9	inactive
Naip5	3	87.6	87.8	inactive
BC061195	1	115	133	inactive
BC061195	2	68.3	80.3	inactive
BC061195	3	46.3	21.8	inactive
Cyp2a12	1	47.4	37.6	inactive
Cyp2a12	2	74.7	56.3	inactive
Cyp2a12	3	75.6	83.2	inactive
Ctnnd2	1	89.6	97	inactive
Ctnnd2	2	114	89.1	inactive
Ctnnd2	3	101	91.7	inactive
Alk	1	67.6	76.1	inactive
Smco1	1	43.6	63.1	inactive
Smco1	2	97.1	63.9	inactive
Smco1	3	101	65.4	inactive
Tnfrsf11b	1	86	75.4	inactive
Tnfrsf11b	2	65.9	47.1	inactive
Tnfrsf11b	3	65	52.1	inactive
Frs2	1	78.4	72.9	inactive
Frs2	2	73.5	67.8	inactive
Frs2	3	62.6	76.2	inactive
Grap	1	49.7	67.3	inactive
Grap	2	116	72.9	inactive
Grap	3	63.6	45.1	inactive
Gm4983	1	46.5	68.6	inactive
Gm4983	2	92.4	72.8	inactive
Gm4983	3	124	69.8	active
Slc5a4b	1	108	67.4	inactive
Slc5a4b	2	98.2	93	inactive
Slc5a4b	3	81.4	78.9	inactive
Noxo1	1	102	62.6	inactive
Noxo1	2	61.3	94.4	inactive
Noxo1	3	155	104	active
Or12j5	1	90.1	82	inactive
Or12j5	2	123	129	active
Or12j5	3	49.9	60.1	inactive
Pnkp	1	55.3	84.6	inactive
Med1	1	106	77.6	inactive
Med1	2	137	78.2	active
Lnpk	1	69.6	74.8	inactive
Lnpk	2	97.8	72	inactive
Lnpk	3	63.7	79.3	inactive
Zc3h4	1	59.1	91.8	inactive
Zc3h4	2	89.3	107	inactive
Zc3h4	3	161	114	active
Prnp	1	77.4	70.5	inactive
Prnp	2	65.7	65.8	inactive
Prnp	3	72.6	79.4	inactive
H2bc1	1	81.9	73.4	inactive
H2bc1	2	74.3	87.8	inactive
H2bc1	3	117	99.6	inactive
Ugt2b1	1	118	108	inactive
Ugt2b1	2	82.7	70.9	inactive
Ugt2b1	3	34.4	67.8	inactive
Commd3	1	47.3	71.5	inactive
Commd3	2	50.1	74.9	inactive
Commd3	3	65.9	92.1	inactive
Or1e21	1	56.6	62.1	inactive
Or1e21	2	104	96.6	inactive
Or1e21	3	64.5	85.7	inactive
Pkp1	1	87	48.9	inactive
Pkp1	2	72.5	51.1	inactive
Pkp1	3	80.7	70.9	inactive
Adcy5	1	76.5	82.1	inactive
Adcy5	2	56.4	44.1	inactive
Adcy5	3	108	95	inactive
Matk	1	69	55.4	inactive
Matk	2	64.9	89.4	inactive
Matk	3	69.2	78.9	inactive
Clec3a	1	50.6	28.5	inactive
Clec3a	2	82.4	86.1	inactive
Clec3a	3	87	55.5	inactive
Celsr1	1	84.9	102	inactive
Celsr1	2	63.2	57.9	inactive
Celsr1	3	96.6	101	inactive
Or4c126	1	73.3	46.9	inactive
Or4c126	2	146	59.5	active
Or4c126	3	79.8	98.1	inactive
Smr2	1	57.8	48.7	inactive
Smr2	2	69.3	60.6	inactive
Smr2	3	35.4	57.4	inactive
Xylt1	1	106	78	inactive
Xylt1	2	63.8	78.3	inactive
Xylt1	3	117	110	inactive
Neurod6	1	111	111	inactive
Neurod6	2	106	77.8	inactive
Neurod6	3	73.1	90.4	inactive
Ttc14	1	62.4	54.3	inactive
Ttc14	2	143	91.2	active
Ttc14	3	107	102	inactive
Znhit2	1	99.1	71	inactive
Znhit2	2	94.5	73.1	inactive
Znhit2	3	77.8	89.7	inactive

Targets above whose target name starts with G or g:
target gene	reagent	GFP, % of control	viability (ATP), % of control	call
Git1	1	154	108	active
Git1	2	193	116	active
Git1	3	95.9	67.9	inactive
Grap	1	49.7	67.3	inactive
Grap	2	116	72.9	inactive
Grap	3	63.6	45.1	inactive
Gm4983	1	46.5	68.6	inactive
Gm4983	2	92.4	72.8	inactive
Gm4983	3	124	69.8	active
